Test results reported in PubChem BioAssay AID493014 (National Center for Advancing Translational Sciences (NCATS), 2011).
This is one part of the list. These are further read-outs of the screen, such as a control signal, another cell line or another target. No call is given for them. Most of these compounds were active or inconclusive in the main read-out, so they are no random draw. The note in brackets gives the kind of curve behind each potency; many fits are weak.

Experiment: qHTS Assay to Find Inhibitors of Chronic Active B-Cell Receptor Signaling
Settings: ABC-DLBCL IkBa-CBG/CBR reporter, luminescence ratio (green luciferase fused to IkBa over red control in TMD8 lymphoma cells), 4 h
In short: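 TMD8 ABC-DLBCL cells carrying doxycycline-inducible green luciferase fused to IkappaBalpha plus unfused red luciferase were exposed to compounds (up to 46 uM) for 4 hrs at 37C. Activity came from the overlap-corrected green/red luminescence ratio.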

[1] = measured here: CBR red luminescence, cell number
[2] = measured here: IkBa-CBG green luminescence

| Structure (SMILES) | AC50 [1] | AC50 [2] |
| --- | --- | --- |
| CC(C)(C)OC(=O)N/N=C/c1c[nH]c2ccccc12 | 6.51 µM [rising, single point] | – |
| CCOC(=O)c1c(-c2cccs2)csc1NC(=O)CCCC(=O)O | 7.94 µM [falling, partial curve] | – |
| Cc1ccc(C(C)C)cc1S(=O)(=O)NC1CC(C)(C)NC(C)(C)C1 | 12.6 µM [falling, partial curve, poor fit] | – |
| CCOC(=O)c1sc(NC(=O)CC2OC(=O)c3ccccc32)nc1C (configuration not stated) | 13 µM [falling, partial curve] | – |
| COC(=O)c1sc(NC(=O)COc2c(C)cccc2C)nc1C | 10 µM [falling, partial curve, poor fit] | – |
| CCCCNS(=O)(=O)c1ccc(NC(=O)c2c(-c3ccccc3Cl)noc2C)cc1 | 20.6 µM [falling, single point] | – |
| Cn1c(=O)oc2cc(S(=O)(=O)Nc3cccc(C(=O)O)c3)ccc21 | 32.6 µM [falling, single point] | – |
| C/C(=N\NC(=O)c1ccccc1OCc1ccc(F)cc1)c1ccccn1 | – | 16.4 µM [falling, single point] |
| O=S(=O)(Cc1ccccc1Cl)NCCOc1ccccc1 | 2.06 µM [rising, full curve] | – |
| COc1ccccc1-c1cc(C(=O)N2CCN(c3ccccc3OC)CC2)no1 | 3.98 µM [falling, full curve] | – |
| COc1ccc(OC)c2c1sc(=NC(=O)C(C)C)n2C | 2.31 µM [falling, full curve] | – |
| O=C1CNC(=S)N1c1nc2ccccc2s1 | 10 µM [falling, partial curve, poor fit] | – |
| COc1ccc(OC)c(C2CC(=O)c3c([nH]c(C(=O)OC(C)C)c3C)C2)c1 (configuration not stated) | 4.61 µM [rising, full curve, poor fit] | 4.11 µM [falling, full curve, poor fit] |
| CCn1c(COc2ccc3c(c2)OCO3)nnc1SCC(=O)c1ccccc1 | 0.058 µM [falling, full curve, poor fit] | – |
| COc1ccc2cnn(-c3ccccc3C)c(=O)c2c1OC | 29.1 µM [falling, single point] | – |
| CC(C)Sc1ccc([N+](=O)[O-])cc1C(=O)Nc1ccncc1 | 15.8 µM [rising, partial curve] | – |
| COCCCNC(=O)c1cc(Sc2nnc(C)s2)nc2ccccc12 | 31.6 µM [rising, single point] | – |
| CCCN(CC1CC1)C(=O)CSc1nnc(-c2cc(-c3cccs3)nc3ccccc23)o1 | 1.64 µM [rising, partial curve, poor fit] | – |
| CCOc1cc(/C=N/Nc2nc3ccccc3[nH]2)cc(Br)c1OCC(=O)N(C)C | 14.1 µM [falling, partial curve, poor fit] | – |
| COc1cccc(NC(=O)CN(C)C(=O)CNC(=O)c2sc3ccccc3c2Cl)c1 | 29.1 µM [falling, single point] | – |
| COc1ccc(Cl)cc1N/C(N)=N/c1nc(C)cc(C)n1 | 2.82 µM [rising, single point] | – |
| Cc1ccc2c(c1)C1CN(C)CCC1N2Sc1ccccc1[N+](=O)[O-] (configuration not stated) | 14.1 µM [falling, partial curve, poor fit] | – |

| Structure (SMILES) | AC50 [1] | AC50 [2] |
| --- | --- | --- |
| COc1ccc2cc(C(=O)OC(C)C)sc(=O)c2c1OC | 4.47 µM [rising, partial curve] | – |
| Cc1c(NC(=O)CCCCCN2C(=O)C3C4C=CC(C4)C3C2=O)c(=O)n(-c2ccccc2)n1C (configuration not stated) | 18.4 µM [rising, single point] | – |
| Cc1oc(-c2ccc(F)cc2)nc1CN1CCCC(C(=O)N2CCOCC2)C1 (configuration not stated) | 35.5 µM [rising, partial curve, poor fit] | – |
| COC(=O)c1cc(COc2ccc3oc(C)c(C(=O)OC)c3c2)c(C)o1 | 20.6 µM [falling, single point] | 16.4 µM [rising, partial curve, poor fit] |
| Cc1sc2ncn(CC(=O)NCCN(C)C)c(=O)c2c1S(=O)(=O)N1CCC(C)CC1 | 0.316 µM [falling, full curve] | – |
| COc1ccccc1NC(=O)C(C)OC(=O)CN1C(=O)C2CC=CCC2C1=O (configuration not stated) | 6.51 µM [rising, partial curve, poor fit] | – |
| CCOC(=O)Cc1nnc2c(Nc3ccc(Cl)cc3)nc3nonc3n12 | 29.1 µM [falling, single point] | – |
| COC(=O)c1ccccc1S(=O)(=O)N1CCC(C(=O)OCC(=O)c2ccccc2OC)CC1 | 14.6 µM [rising, single point] | – |
| CCOc1ccc(NC(=O)c2cccc3ccccc23)cc1 | 2.51 µM [falling, partial curve, poor fit] | – |
| O=S(=O)(c1ccc(Br)cc1)n1c(Cc2ccccc2)nc2ccccc21 | 5.17 µM [falling, full curve] | – |
| CCOC(=O)c1c(C)[nH]c(C)c1C(=O)COC(=O)c1cc(OC)c(OC)cc1OC | 14.1 µM [rising, partial curve, poor fit] | – |
| COc1cccc(OC)c1C(=O)NC(=S)Nc1ccc2c(c1)Cc1ccccc1-2 | 29.1 µM [falling, single point] | – |
| CCOc1cc(/C=C2/NC(=O)NC2=O)cc([N+](=O)[O-])c1O | 17.8 µM [rising, single point] | – |
| CCN1CCN(C(=O)c2ccc3c(c2)S(=O)(=O)c2ccccc2C3=O)CC1 | 11.2 µM [rising, partial curve, poor fit] | – |
| COc1ccc(C2SCC(=O)N2CCc2ccc(OC)c(OC)c2)cc1 (configuration not stated) | 3.16 µM [rising, single point] | – |
| CCOc1ccc(OCCC(=O)Nc2ccc(F)cc2C)cc1 | 15.8 µM [rising, single point] | – |
| COc1ccc(NC(=O)c2ccc(-n3c(C)ccc3C)cc2)c(OC)c1 | 35.5 µM [falling, single point] | – |
| O=c1oc(-c2ccc(Br)o2)nc2ccccc12 | 1.3 µM [falling, full curve] | – |
| CN(C)S(=O)(=O)N(CC(=O)Nc1cccc(F)c1)c1ccccc1 | 32.6 µM [falling, single point] | – |
| COc1ccc(-n2c(=S)[nH]c3cc(C(=O)Nc4ccc(C)c(F)c4)ccc3c2=O)c(OC)c1 | 1.41 µM [falling, full curve] | – |
| COc1ccc(N2CCN(C(=O)c3ccc(NS(=O)(=O)c4cccs4)cc3)CC2)cc1 | 0.224 µM [rising, full curve, poor fit] | – |
| COc1ccc(NC(=O)CSc2nnc3ccc(-c4cccnc4)nn23)cc1 | 3.66 µM [rising, full curve, poor fit] | – |

| Structure (SMILES) | AC50 [1] | AC50 [2] |
| --- | --- | --- |
| Nc1cc(=O)nc(SCC(=O)Nc2cccc3ccccc23)n1CCc1ccccc1 | 2.24 µM [falling, full curve, poor fit] | – |
| Cn1c(N)nc2ccccc2c1=O | 2 µM [falling, partial curve, poor fit] | – |
| Oc1ccc(CNc2ccccc2F)c2cccnc12 | 12.6 µM [rising, partial curve, poor fit] | 25.1 µM [falling, partial curve, poor fit] |
| CCOP1(=O)C=C(C(C)(C)C)OC1c1ccc(F)cc1 (configuration not stated) | 1.03 µM [rising, full curve, poor fit] | – |
| O=C(/C=C/c1ccccc1)NNC1=NS(=O)(=O)c2ccccc21 | 35.5 µM [falling, single point] | – |
| Cc1ccc2oc3nc(C)c(C(=O)O)cc3c(=O)c2c1 | 0.398 µM [falling, full curve, poor fit] | – |
| CC(=O)c1ccc(N2CCN(C(=O)Cc3cccs3)CC2)cc1 | 6.31 µM [rising, single point] | – |
| CC1CCN(c2nc(N3CCCCC3)nc(N3CCCCC3)n2)CC1 | 3.55 µM [rising, partial curve, poor fit] | – |
| COc1ccccc1NC(=O)Nc1ccnn1C1CCN(C(=O)c2cccnc2)CC1 | 11.2 µM [falling, single point] | – |
| CCOC(=O)c1ccc(-n2nc(C)cc2C)cc1 | 8.91 µM [rising, partial curve, poor fit] | – |
| COc1ccc(CCNc2nc(N3CCCCC3)nc(N3CCCCC3)n2)cc1OC | 0.82 µM [rising, full curve, poor fit] | – |
| CC(=O)Nc1ccc(NC(=O)c2ccc3c(c2)CCN3S(C)(=O)=O)cc1 | 35.5 µM [rising, single point] | – |
| C=CCNCCCCOc1ccc(OCc2ccccc2)cc1 | 1.41 µM [rising, partial curve, poor fit] | – |
| CCC(C(=O)Nc1sc(C(N)=O)c(C)c1C(=O)OC)c1ccccc1 (configuration not stated) | 17.8 µM [falling, single point] | – |
| CCn1nnc(NC(=O)C(c2ccccc2)c2ccccc2)n1 | 12.6 µM [falling, single point] | – |
| COc1ccc(Br)cc1CNC(=O)C1CCCN(S(C)(=O)=O)C1 (configuration not stated) | 0.13 µM [rising, full curve, poor fit] | – |
| ClCc1ncc(-c2ccc(Cl)cc2)o1 | 5.62 µM [falling, full curve, poor fit] | – |
| CNc1ncnc2c1cnn2-c1ccc(C)c(C)c1 | 15.8 µM [falling, single point] | – |
| CCOc1ccc(OCC)c(NC(=O)C2COc3ccccc3O2)c1 (configuration not stated) | 5.62 µM [rising, single point] | – |
| CN(C)CCCNc1cc(C(C)(C)C)nc2c(-c3ccc(Cl)cc3)cnn12 | 35.5 µM [falling, single point] | – |

Full records, looked up by structure.
CCOP1(=O)C=C(C(C)(C)C)OC1c1ccc(F)cc1 (configuration not stated) as listed: AC50 [1]: 1.03 µM [rising, full curve, poor fit]
CNc1ncnc2c1cnn2-c1ccc(C)c(C)c1 as listed: AC50 [1]: 15.8 µM [falling, single point]
C=CCNCCCCOc1ccc(OCc2ccccc2)cc1 as listed: AC50 [1]: 1.41 µM [rising, partial curve, poor fit]

Shown bar-delimited: part of the list above.
Structure (SMILES) | AC50 [1] | AC50 [2]
Oc1ccc(CNc2ccccc2F)c2cccnc12 | 12.6 µM [rising, partial curve, poor fit] | 25.1 µM [falling, partial curve, poor fit]
O=C(/C=C/c1ccccc1)NNC1=NS(=O)(=O)c2ccccc21 | 35.5 µM [falling, single point] | –
